Test results: patent US20060135415A1, “Immunomodulation and effect on cell processes relating to serotonin family receptors and the blood-brain barrier” (priority 2002, published 2006)

System: RPMI 8226 multiple myeloma cells
Experiment: RPMI 8226 cell viability and proliferation (trypan blue, MTT, 3H-thymidine)
Type: cell-based
Details: Homo sapiens, 0.1-50 μM (FIGS. 31, 32), read-out: EC50, inhibition of proliferation of RPMI-8226 cells
Description: The human plasmacytoma (multiple myeloma) cell line, RPMI 8226 (American Type Culture Collection, Manassas, Va.), was cultured in RPMI 1640 supplemented with 10 mM HEPES, 1 mM sodium pyruvate, 4.5 g/L glucose, 1.5 g/L bicarbonate and 20% FBS (non-heat inactivated).
Cell proliferation was assayed by three methods—Trypan Blue Exclusion was used to quantify the number of viable cells in culture; 3-(4,5-dimethylthiazol-2-yl)-2,5-diphenyl tetrazolium bromide (MTT) reduction was used to assay mitochondrial activity (and thus cell viability); and ^3H-Thymidine uptake was employed to assay for active DNA synthesis.
Three separate indicators of cell proliferation were employed to study the effects of 5-HT receptor modulating agents on the human multiple myeloma cell line, RPMI 8226. Cells were plated at 4 separate densities and were treated with LY53587 (an antagonist of the 5-HT2A/2B/2C receptors) at a range of concentrations. The exclusion of trypan blue dye was used as an indicator of cell viability. Cell numbers were then plotted against the concentration of drug added.
MTT reduction was also used as an indicator of cell viability (more specifically, mitochondrial activity). Absorbance values at OD570 were then plotted against drug concentration. […]

EC50: 5 to 10 µM
SMILES: OCCN1CCN(CCCN2c3ccccc3Sc3ccc(C(F)(F)F)cc32)CC1 [Fluphenazine]
